Drawing on paper doi:10.1101/2023.04.19.537449, this text covers binding for one substance.

The chains behind the UniProt entries cited, without tags or fusion partners.
UniProt P46937: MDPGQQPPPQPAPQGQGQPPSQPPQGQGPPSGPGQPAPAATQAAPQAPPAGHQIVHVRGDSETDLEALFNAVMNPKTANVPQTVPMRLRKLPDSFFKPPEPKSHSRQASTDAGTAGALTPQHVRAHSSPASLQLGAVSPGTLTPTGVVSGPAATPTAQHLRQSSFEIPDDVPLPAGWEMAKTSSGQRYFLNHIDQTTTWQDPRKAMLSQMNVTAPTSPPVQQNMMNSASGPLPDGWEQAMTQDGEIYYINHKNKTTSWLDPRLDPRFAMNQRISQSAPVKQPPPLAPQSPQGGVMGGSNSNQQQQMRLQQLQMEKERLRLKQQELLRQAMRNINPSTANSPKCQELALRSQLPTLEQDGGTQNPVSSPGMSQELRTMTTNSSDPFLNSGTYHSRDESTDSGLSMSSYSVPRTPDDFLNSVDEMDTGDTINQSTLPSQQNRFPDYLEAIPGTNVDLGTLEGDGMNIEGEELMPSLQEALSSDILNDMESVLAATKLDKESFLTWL

In the experiment the target is T1, FLAG-tagged wild type AMOTL2 (Angiomotin-like 2) (UniProt Q9Y2J4).
T1 sequence: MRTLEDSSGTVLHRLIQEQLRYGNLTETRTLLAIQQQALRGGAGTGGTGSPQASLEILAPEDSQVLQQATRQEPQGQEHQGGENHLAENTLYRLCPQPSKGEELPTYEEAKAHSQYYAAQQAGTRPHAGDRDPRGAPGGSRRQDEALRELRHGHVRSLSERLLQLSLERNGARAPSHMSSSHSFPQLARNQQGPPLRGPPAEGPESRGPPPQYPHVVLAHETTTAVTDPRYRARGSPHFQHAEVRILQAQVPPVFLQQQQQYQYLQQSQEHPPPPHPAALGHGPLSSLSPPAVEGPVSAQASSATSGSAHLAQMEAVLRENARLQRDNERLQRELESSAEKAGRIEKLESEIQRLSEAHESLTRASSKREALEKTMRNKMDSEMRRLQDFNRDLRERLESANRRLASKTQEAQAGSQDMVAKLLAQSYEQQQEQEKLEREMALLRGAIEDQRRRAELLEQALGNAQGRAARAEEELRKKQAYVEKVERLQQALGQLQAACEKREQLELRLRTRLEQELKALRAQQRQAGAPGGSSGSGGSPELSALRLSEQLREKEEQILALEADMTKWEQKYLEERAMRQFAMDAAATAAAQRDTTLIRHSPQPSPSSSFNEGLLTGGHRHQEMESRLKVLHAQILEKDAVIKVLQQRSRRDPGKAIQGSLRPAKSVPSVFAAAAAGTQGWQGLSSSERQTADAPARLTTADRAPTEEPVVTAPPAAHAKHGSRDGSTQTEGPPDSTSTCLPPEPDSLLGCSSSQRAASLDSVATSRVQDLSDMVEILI
As to the kind of experiment: co-IP; HEK293T cells at high cell density co-expressing FLAG-AMOTL2 forms and HA-YAP; 1 mg lysate (RIPA or nondenaturing lysis buffer: 20 mM Tris, 137 mM NaCl, 0.5% NP-40) with anti-FLAG M2 magnetic beads overnight at 4°C; eluted with FLAG peptide; anti-HA blot.

These are yes or no findings as the source states them, for the method shown. Binding seen in cells or lysates may run through a third protein. Some entries that bind do so weakly or less than the wild type. Where a sequence is shown, tags or fusion partners need not be part of it.

In the case of “HA-tagged YAP (Yes-associated protein 1) (from UniProt P46937 1-504)”, the binding entry is given as “binds”.
